Data taken from publication PMC10450186.
These are yes or no findings as the source states them, for the method shown. Tags and fused reporters may be left off the sequences shown.

Protein sequences, listed by entry. Tags and fused reporters are not part of them. Lines headed by an entry give the natural chain unless they say otherwise; changes in a name come on top.
UniProt P15927: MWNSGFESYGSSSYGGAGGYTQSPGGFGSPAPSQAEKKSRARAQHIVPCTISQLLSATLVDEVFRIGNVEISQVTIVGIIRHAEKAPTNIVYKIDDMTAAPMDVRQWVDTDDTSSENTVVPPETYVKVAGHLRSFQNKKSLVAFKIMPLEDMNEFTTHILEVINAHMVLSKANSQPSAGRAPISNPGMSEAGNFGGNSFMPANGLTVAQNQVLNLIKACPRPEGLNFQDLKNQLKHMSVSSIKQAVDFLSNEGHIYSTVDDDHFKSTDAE
UniProt P35244: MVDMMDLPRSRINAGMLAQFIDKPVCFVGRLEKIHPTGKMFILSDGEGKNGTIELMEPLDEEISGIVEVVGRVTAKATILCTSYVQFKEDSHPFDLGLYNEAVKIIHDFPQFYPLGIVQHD

Biological target: RPA trimer consisting of the RPA70, RPA32 and RPA14 subunits, purified (human) (UniProt P27694+P15927+P35244)
Test: native gel or EMSA; NSMF-eGFP with unlabeled RPA bound to Cy5-labeled ssDNA; reaction buffer 50 mM Tris-HCl [7.5], 50 mM NaCl, 1 mM DTT, 0.01% Tween-20, 23°C; both purified

B1: full-length NSMF tagged with 3×FLAG at the N-terminus and eGFP at the C-terminus, purified (protein, UniProt Q6X4W1 1-530)
chain: MGAAASRRRALRSEAMSSVAAKVRAARAFGEYLSQSHPENRNGADHLLADAYSGHDGSPEMQPAPQNKRRLSLVSNGCYEGSLSEEPSIRKPAGEGPQPRVYTISGEPALLPSPEAEAIELAVVKGRRQRHPHHHSQPLRASPGGSREDVSRPCQSWAGSRQGSKECPGCAQLAPGPTPRAFGLDQPPLPETSGRRKKLERMYSVDRVSDDIPIRTWFPKENLFSFQTATTTMQAISVFRGYAERKRRKRENDSASVIQRNFRKHLRMVGSRRVKAQTFAERRERSFSRSWSDPTPMKADTSHDSRDSSDLQSSHCTLDEAFEDLDWDTEKGLEAVACDTEGFVPPKVMLISSKVPKAEYIPTIIRRDDPSIIPILYDHEHATFEDILEEIERKLNVYHKGAKIWKMLIFCQGGPGHLYLLKNKVATFAKVEKEEDMIHFWKRLSRLMSKVNPEPNVIHIMGCYILGNPNGEKLFQNLRTLMTPYRVTFESPLELSAQGKQMIETYFDFRLYRLWKSRQHSKLLDFDDVL
binding: no binding (condition: RPA bound to Cy5-labeled ssDNA)
